Experimental data: patent US20170355773A1
Results are given in words; binding and its absence hold for the method and conditions named. Some entries that bind do so weakly or less than the wild type.

Target: T1, recombinant human TNFRSF25 (human) (UniProt Q93038)
T1 sequence: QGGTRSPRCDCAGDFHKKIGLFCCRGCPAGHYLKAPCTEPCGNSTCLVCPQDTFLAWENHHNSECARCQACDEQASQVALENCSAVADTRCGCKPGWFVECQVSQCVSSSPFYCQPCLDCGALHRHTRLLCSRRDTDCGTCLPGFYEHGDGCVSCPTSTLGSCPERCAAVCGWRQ
Test: binding with or without the parental antibody (FIG. 9)

binding: binds
B1: hTL1A-Ig (Fc fusion, human, UniProt O95150 72-251, looked up, not shown: a dimerising Fc or GST)
chain: LKGQEFAPSHQQVYAPLRADGDKPRAHLTVVRQTPTQHFKNQFPALHWEHELGLAFTKNRMNYTNKFLLIPESGDYFIYSQVTFRGMTSECSEIRQAGRPNKPDSITVVITKVTDSYPEPTQLLMGTKSVCEVGSNWFQPIYLGAMFSLQEGDKLMVNVSDISLVDYTKEDKTFFGAFLL
